{"source": "PubChem BioAssay AID540256", "about": "(National Center for Advancing Translational Sciences (NCATS), 2011)", "note": "Out of some 300,000 compounds screened, about 3,700 (1.2%) were called active. The shares of active, inactive and inconclusive entries below differ from those in the screen. Calls follow the shape of the full dose curve; tested in HEK293 cells. A potency beside an inconclusive call is a rough fit, not a confirmed value. % is scaled to controls: 0 for no effect and ±100 for the full control effect; potency is read from the fitted curve at half-maximal effect."}
{"test": "qHTS for Inhibitors of binding or entry into cells for Lassa Virus; also: nearly all actives have a fitted effect of over 50% in size", "conditions": "Lassa virus pseudotype entry inhibition, cell reporter; activity change, negative = inhibition: at 37.9 µM (top of the series) unless noted"}
{"compound": "Cc1cccc(OCC(=O)Nc2cc(C)ccc2O)c1", "activity change, negative = inhibition": "inactive: -5.05%"}
{"compound": "CC(C)(C)c1cc(NC(=O)COC(=O)c2ccc3c(=O)n4c(nc3c2)CCC4)n(-c2ccccc2)n1", "activity change, negative = inhibition": "inactive: -2%"}
{"compound": "O=C(c1ccc2c(c1)C(=O)N(Cc1ccncc1)C2=O)N1CCN(S(=O)(=O)c2ccc(OC(F)(F)F)cc2)CC1", "Potency": "inconclusive: 3.55 µM [activator, full curve, poor fit]"}
{"compound": "COc1ccc(S(=O)(=O)N2CCCN(CCC(=O)Nc3cccc(C(F)(F)F)c3)CC2)cc1", "Potency": "inconclusive: 0.259 µM [inhibitor, partial curve, poor fit]"}
{"compound": "CCc1ccc(NC(=O)CSc2nc(=O)n(Cc3ccco3)c3c2CCC3)cc1", "Potency": "inconclusive: 12.6 µM [inhibitor, single point]"}
{"compound": "O=C(CCC(=O)Nc1ccccc1)NNC(=O)C(c1ccccc1)c1ccccc1", "Potency": "inconclusive: 20 µM [activator, single point]"}
{"compound": "O=C(Nc1ccc(N=Nc2ccccc2)c(NC(=O)C2CCCO2)c1)C1CCCO1", "note": "(stereo not drawn)", "Potency": "inconclusive: 8.2 µM [inhibitor, partial curve, poor fit]"}
{"compound": "CCOC(=O)C1=C(C)N=c2s/c(=C\\c3ccc(OCC(=O)O)cc3)c(=O)n2C1c1ccc(Cl)cc1", "note": "(stereo not drawn)", "Potency": "inconclusive: 14.1 µM [inhibitor, single point]"}
{"compound": "CCCc1ccccc1OCCNS(=O)(=O)c1cc2c(cc1C)OCC(=O)N2", "Potency": "inconclusive: 3.16 µM [inhibitor, partial curve, poor fit]"}
{"compound": "N/C(=N\\OC(=O)c1cccs1)c1ccccc1", "Potency": "inconclusive: 17.8 µM [inhibitor, single point]"}
{"compound": "O=c1c(Cl)c(Nc2cccc(Cl)c2)cnn1-c1nc2ccccc2s1", "Potency": "inconclusive: 10 µM [inhibitor, single point]"}
{"compound": "Cc1ccc(NC(=O)/C=C/c2ccc(S(=O)(=O)N3CCOCC3)cc2)cc1S(=O)(=O)N(C)C", "Potency": "inconclusive: 35.5 µM [inhibitor, single point]"}
{"compound": "Cc1nc(SCC(=O)c2cccs2)c2oc3ccccc3c2n1", "Potency": "inconclusive: 16.4 µM [activator, partial curve]"}
{"compound": "O=C(CCc1ccc(O)cc1)c1c(O)cc(O)cc1O", "Potency": "inconclusive: 16.4 µM [inhibitor, partial curve, poor fit]"}
{"compound": "O=C(CSc1nc(=O)n(Cc2ccco2)c2c1CCC2)NCc1ccc(F)cc1", "activity change, negative = inhibition": "inactive: 2.05% [at 46.1 µM]"}
{"compound": "COc1ccc(N=Cc2c(O)n(-c3cccc(C)n3)c(=O)c3ccccc23)cc1", "Potency": "inconclusive: 36.6 µM [inhibitor, partial curve, poor fit]"}
{"compound": "CCOC(=O)C1CCN(C(=O)C2CCCN(S(=O)(=O)c3ccc(OC)c(Cl)c3)C2)CC1", "note": "(stereo not drawn)", "activity change, negative = inhibition": "inactive: -4.15%"}
{"compound": "COC(=O)c1ccc(S(=O)(=O)N2CCCN(Cc3ccccc3)CC2)n1C", "Potency": "inconclusive: 10 µM [inhibitor, partial curve, poor fit]"}
{"compound": "CC1CCN(S(=O)(=O)c2cccc(C(=O)NCC3CCCO3)c2)CC1", "note": "(stereo not drawn)", "Potency": "active: 6.31 µM"}
{"compound": "CN1c2ccccc2C(C)(C)C12CC(CCl)=NO2", "note": "(stereo not drawn)", "Potency": "inconclusive: 3.26 µM [inhibitor, single point]"}
{"compound": "COc1ccc2c(c1)sc1nc(=O)ccn12", "activity change, negative = inhibition": "inactive: 17.7%"}
{"compound": "Fc1ccc(/C=N/Nc2nc(-c3cccnc3)nc3ccccc23)cc1", "Potency": "inconclusive: 35.5 µM [inhibitor, single point]"}
{"compound": "Oc1cccc(Nc2ncnc3sc4c(c23)CCCC4)c1", "Potency": "inconclusive: 35.5 µM [inhibitor, single point]"}
{"compound": "COc1cccc(NC2SC(=O)N(c3ccccc3)C2=O)c1", "note": "(stereo not drawn)", "activity change, negative = inhibition": "inactive: 20.6%"}
{"compound": "CC(C(=O)OCC(=O)c1cccc([N+](=O)[O-])c1)N1C(=O)C2C3CCC(C3)C2C1=O", "note": "(stereo not drawn)", "Potency": "inconclusive: 7.3 µM [inhibitor, single point]"}
{"compound": "CCc1c(C)nc2ncnn2c1N1CCC(C(=O)Nc2ccccc2)CC1", "activity change, negative = inhibition": "inactive: 0.896%"}
{"compound": "O=C(Nc1ccc(Cl)c(S(=O)(=O)N2CCCCC2)c1)C1=COCCO1", "Potency": "inconclusive: 35.5 µM [inhibitor, single point]"}
{"compound": "Cc1cccc(-n2c3nc(=O)n(C)c(=O)c-3cc3ccc(Cl)cc32)c1C", "activity change, negative = inhibition": "inactive: -7.34% [at 46.1 µM]"}
{"compound": "O=C(COc1ccc2c(c1)OCO2)NCc1cccs1", "Potency": "inconclusive: 12.6 µM [inhibitor, partial curve]"}
{"compound": "CCN(Cc1ccccc1)S(=O)(=O)c1cc(C(=O)NC(C)C2CC3CCC2C3)ccc1OC", "note": "(stereo not drawn)", "Potency": "active: 3.16 µM"}
{"compound": "Cc1cc(NC2CCCC2)n2ncc(-c3ccccc3)c2n1", "Potency": "inconclusive: 5.01 µM [inhibitor, full curve, poor fit]"}
{"compound": "O=C(NCCc1cccc(Cl)c1)c1cc2ccccc2oc1=O", "Potency": "inconclusive: 0.141 µM [activator, full curve, poor fit]"}
{"compound": "CCC(C)NC(=O)c1c(-c2ccccc2)c(-c2ccccc2)nn(C)c1=O", "note": "(stereo not drawn)", "activity change, negative = inhibition": "inactive: -18.6% [at 46.1 µM]"}
{"compound": "Cc1noc(C)c1COc1ccccc1C(=O)N1CCN(S(=O)(=O)c2cccc(Cl)c2)CC1", "activity change, negative = inhibition": "inactive: -2.81%"}
{"compound": "CS(=O)(=O)CCNCc1ccc(-c2ccc3ncnc(Nc4ccc(OCc5ccccc5)c(Cl)c4)c3c2)o1", "Potency": "inconclusive: 39.7 µM [inhibitor, partial curve, poor fit]"}
{"compound": "C[C@H]1O[C@@H](n2cc(F)c(=O)[nH]c2=O)[C@H](O)[C@H]1O", "activity change, negative = inhibition": "inactive: -29.4%"}
{"compound": "COc1ccc(OC)c(S(=O)(=O)N(C(C)=O)c2ccc3oc(=O)sc3c2)c1", "activity change, negative = inhibition": "inactive: 16.8% [at 46.1 µM]"}
{"compound": "O=C(O)c1ccc2c(c1)C(=O)N(NC(=O)c1ccc(O)cc1)C2=O", "Potency": "inconclusive: 35.5 µM [activator, single point]"}
{"compound": "COc1ccc(-c2cc(C(=O)Oc3ccc(C)c(C)c3)c3ccccc3n2)cc1", "Potency": "inconclusive: 6.31 µM [inhibitor, single point]"}
{"compound": "Cc1cc(C)cc(N2CCn3c2nc2c3c(=O)n(CCc3ccccc3)c(=O)n2C)c1", "Potency": "inconclusive: 0.562 µM [inhibitor, full curve, poor fit]"}
{"compound": "CCNC(=S)N/N=C/c1c(Cl)cccc1Cl", "activity change, negative = inhibition": "inactive: 18.1%"}
{"compound": "Cc1cccc(N2CCN(C(=O)c3ccoc3C)CC2)c1C", "Potency": "inconclusive: 5.8 µM [inhibitor, full curve]"}
{"compound": "Cc1ccc(/C=N/Nc2nc3ccccc3s2)o1", "Potency": "active: 3.16 µM"}
